# Assay: Phase 2b study in psoriasis (Example 3): cardiovascular risk factors, mean change from baseline at Week 16
# Format: in vivo, human
smiles,measurement,setting,value
"O=C(Cc1c(Cl)c[n+]([O-])cc1Cl)c1ccc(OC(F)F)c2c1OC1(CCS(=O)(=O)CC1)O2 [orismilast, 2-(3,5-dichloro-1-oxidopyridin-1-ium-4-yl)-1-[7-(difluoromethoxy)-1′,1′-dioxospiro[1,3-benzodioxole-2,4′-thiane]-4-yl]ethanone]","BMI, mean change from baseline Week 16",20 mg BID,−0.9 kg/m^2
same,"C Reactive Protein, mean change from baseline Week 16",20 mg BID,3.4 mmol/L
same,"Cholesterol, mean change from baseline Week 16",20 mg BID,-0.2 mmol/L
same,"Diastolic blood pressure, mean change from baseline Week 16",20 mg BID,−1.6 mmHg
same,"Fasting serum glucose, mean change from baseline Week 16",20 mg BID,-0.2 mmol/L
same,"HDL cholesterol, mean change from baseline Week 16",20 mg BID,0.0 mmol/L
same,"Hip circumference, mean change from baseline Week 16",20 mg BID,−0.9 cm
same,"LDL cholesterol, mean change from baseline Week 16",20 mg BID,-0.1 mmol/L
same,"Systolic blood pressure, mean change from baseline Week 16",20 mg BID,−1.1 mmHg
same,"Triglycerides, mean change from baseline Week 16",20 mg BID,-0.2 mmol/L
same,"Waist circumference, mean change from baseline Week 16",20 mg BID,−3.1 cm
same,"Weight, mean change from baseline Week 16",20 mg BID,-2.6 kg
same,"BMI, mean change from baseline Week 16",30 mg BID,−0.9 kg/m^2
same,"C Reactive Protein, mean change from baseline Week 16",30 mg BID,-33.1 mmol/L
same,"Cholesterol, mean change from baseline Week 16",30 mg BID,0.0 mmol/L
same,"Diastolic blood pressure, mean change from baseline Week 16",30 mg BID,1.3 mmHg
same,"Fasting serum glucose, mean change from baseline Week 16",30 mg BID,-0.2 mmol/L
same,"HDL cholesterol, mean change from baseline Week 16",30 mg BID,0.0 mmol/L
same,"Hip circumference, mean change from baseline Week 16",30 mg BID,−2.8 cm
same,"LDL cholesterol, mean change from baseline Week 16",30 mg BID,0.0 mmol/L
same,"Systolic blood pressure, mean change from baseline Week 16",30 mg BID,2.1 mmHg
same,"Triglycerides, mean change from baseline Week 16",30 mg BID,-0.1 mmol/L
same,"Waist circumference, mean change from baseline Week 16",30 mg BID,−1.0 cm
same,"Weight, mean change from baseline Week 16",30 mg BID,-2.8 kg
same,"BMI, mean change from baseline Week 16",40 mg BID,−1.0 kg/m^2
same,"C Reactive Protein, mean change from baseline Week 16",40 mg BID,-27.2 mmol/L
same,"Cholesterol, mean change from baseline Week 16",40 mg BID,-0.1 mmol/L
same,"Diastolic blood pressure, mean change from baseline Week 16",40 mg BID,1.0 mmHg
same,"Fasting serum glucose, mean change from baseline Week 16",40 mg BID,-0.1 mmol/L
same,"HDL cholesterol, mean change from baseline Week 16",40 mg BID,0.0 mmol/L
same,"Hip circumference, mean change from baseline Week 16",40 mg BID,−3.4 cm
same,"LDL cholesterol, mean change from baseline Week 16",40 mg BID,-0.2 mmol/L
same,"Systolic blood pressure, mean change from baseline Week 16",40 mg BID,1.5 mmHg
same,"Triglycerides, mean change from baseline Week 16",40 mg BID,0.2 mmol/L
same,"Waist circumference, mean change from baseline Week 16",40 mg BID,−1.9 cm
same,"Weight, mean change from baseline Week 16",40 mg BID,-3.1 kg
